Source: PMC10470497
No constants are given. Whether binding was seen depends on the method and setting. Binding seen in cells or lysates may run through a third protein. Some results given as binding are weak or reduced against the parent protein; the word gives no strength. Sequences can lack the tags named with a protein.

Target: T1, human MAGED2 full length with C-terminal Flag tag (MAGED2-Flag) (human) (UniProt Q9UNF1)
T1 sequence: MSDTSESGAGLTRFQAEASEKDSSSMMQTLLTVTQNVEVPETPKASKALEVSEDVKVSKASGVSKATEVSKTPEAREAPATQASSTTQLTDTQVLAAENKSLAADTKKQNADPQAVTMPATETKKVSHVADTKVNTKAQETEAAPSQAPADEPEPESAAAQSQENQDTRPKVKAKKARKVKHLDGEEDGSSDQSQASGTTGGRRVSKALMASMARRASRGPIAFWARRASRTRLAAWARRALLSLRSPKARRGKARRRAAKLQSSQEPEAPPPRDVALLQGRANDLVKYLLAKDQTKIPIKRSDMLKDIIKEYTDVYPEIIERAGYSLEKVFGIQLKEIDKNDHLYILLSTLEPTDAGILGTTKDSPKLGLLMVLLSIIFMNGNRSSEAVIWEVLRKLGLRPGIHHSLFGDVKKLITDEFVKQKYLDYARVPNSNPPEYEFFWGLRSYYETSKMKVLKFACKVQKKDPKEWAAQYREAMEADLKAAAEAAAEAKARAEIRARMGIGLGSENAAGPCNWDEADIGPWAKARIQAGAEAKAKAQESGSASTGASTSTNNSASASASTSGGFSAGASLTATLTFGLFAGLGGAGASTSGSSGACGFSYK
Assay: co-IP

SARS-CoV-2 nsp9 (from UniProt P0DTD1)
binding: binds

SARS-CoV-2 nsp12 (from UniProt P0DTD1) (enzyme)
binding: binds
